38 targets from the supplement of paper PMC12067093, “Discovery and optimisation of a covalent ligand for TRIM25 and its application to targeted protein ubiquitination” (Chemical Science, 2025) can be followed below.

Amino acid sequences for entries named in this document (tags omitted). A change or cut given only in a name is not applied to a line headed by its entry.
UniProt P09110: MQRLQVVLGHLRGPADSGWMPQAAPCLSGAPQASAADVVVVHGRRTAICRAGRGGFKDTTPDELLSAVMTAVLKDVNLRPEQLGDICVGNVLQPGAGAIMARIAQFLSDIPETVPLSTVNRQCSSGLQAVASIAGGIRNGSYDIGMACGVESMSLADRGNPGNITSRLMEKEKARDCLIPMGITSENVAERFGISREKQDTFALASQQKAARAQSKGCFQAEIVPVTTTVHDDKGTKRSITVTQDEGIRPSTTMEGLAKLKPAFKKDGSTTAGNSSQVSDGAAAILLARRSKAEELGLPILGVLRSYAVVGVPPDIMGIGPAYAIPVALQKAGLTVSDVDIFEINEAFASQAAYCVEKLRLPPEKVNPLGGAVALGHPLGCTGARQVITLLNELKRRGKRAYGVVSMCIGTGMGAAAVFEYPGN
UniProt Q99798: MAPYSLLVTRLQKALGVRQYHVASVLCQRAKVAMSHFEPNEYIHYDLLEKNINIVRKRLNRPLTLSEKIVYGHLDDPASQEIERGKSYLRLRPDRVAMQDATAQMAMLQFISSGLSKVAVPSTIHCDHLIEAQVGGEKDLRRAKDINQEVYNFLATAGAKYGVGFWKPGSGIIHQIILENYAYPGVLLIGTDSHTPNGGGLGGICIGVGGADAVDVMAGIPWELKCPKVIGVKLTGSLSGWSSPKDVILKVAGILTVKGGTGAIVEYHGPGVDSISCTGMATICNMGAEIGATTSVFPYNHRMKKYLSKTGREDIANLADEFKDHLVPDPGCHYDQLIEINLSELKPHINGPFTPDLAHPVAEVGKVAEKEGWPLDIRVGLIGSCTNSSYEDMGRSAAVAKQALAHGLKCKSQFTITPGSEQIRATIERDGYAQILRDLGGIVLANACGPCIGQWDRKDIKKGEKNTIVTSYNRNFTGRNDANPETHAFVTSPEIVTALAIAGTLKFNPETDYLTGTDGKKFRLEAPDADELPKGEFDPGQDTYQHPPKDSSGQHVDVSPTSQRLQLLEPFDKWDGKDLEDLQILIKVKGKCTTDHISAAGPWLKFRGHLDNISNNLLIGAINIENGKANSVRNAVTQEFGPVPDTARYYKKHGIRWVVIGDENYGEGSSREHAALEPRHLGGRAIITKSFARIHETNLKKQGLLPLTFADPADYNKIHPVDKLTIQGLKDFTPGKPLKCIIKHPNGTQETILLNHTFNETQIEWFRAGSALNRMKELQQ
UniProt P16219: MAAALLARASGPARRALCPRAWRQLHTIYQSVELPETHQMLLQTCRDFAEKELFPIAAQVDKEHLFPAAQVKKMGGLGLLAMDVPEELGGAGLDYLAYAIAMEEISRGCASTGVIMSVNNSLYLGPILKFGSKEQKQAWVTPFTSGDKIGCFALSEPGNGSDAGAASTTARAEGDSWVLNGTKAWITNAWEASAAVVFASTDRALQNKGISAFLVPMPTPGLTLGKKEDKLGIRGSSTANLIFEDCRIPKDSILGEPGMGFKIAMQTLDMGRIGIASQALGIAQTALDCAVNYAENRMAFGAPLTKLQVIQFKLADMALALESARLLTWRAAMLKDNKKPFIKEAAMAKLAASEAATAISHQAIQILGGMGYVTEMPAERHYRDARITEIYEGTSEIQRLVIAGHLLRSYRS
UniProt P24752: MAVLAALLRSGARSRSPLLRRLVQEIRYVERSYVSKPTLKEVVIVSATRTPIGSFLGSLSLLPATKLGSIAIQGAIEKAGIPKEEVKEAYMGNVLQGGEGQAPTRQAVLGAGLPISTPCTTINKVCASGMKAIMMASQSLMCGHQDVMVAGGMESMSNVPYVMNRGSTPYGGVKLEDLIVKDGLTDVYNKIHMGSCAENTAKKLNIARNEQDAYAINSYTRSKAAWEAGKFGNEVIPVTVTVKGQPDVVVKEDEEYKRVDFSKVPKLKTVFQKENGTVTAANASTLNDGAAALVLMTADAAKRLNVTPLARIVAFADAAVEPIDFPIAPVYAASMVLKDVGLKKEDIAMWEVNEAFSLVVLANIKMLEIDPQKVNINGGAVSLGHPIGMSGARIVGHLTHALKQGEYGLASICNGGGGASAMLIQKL
UniProt O95870: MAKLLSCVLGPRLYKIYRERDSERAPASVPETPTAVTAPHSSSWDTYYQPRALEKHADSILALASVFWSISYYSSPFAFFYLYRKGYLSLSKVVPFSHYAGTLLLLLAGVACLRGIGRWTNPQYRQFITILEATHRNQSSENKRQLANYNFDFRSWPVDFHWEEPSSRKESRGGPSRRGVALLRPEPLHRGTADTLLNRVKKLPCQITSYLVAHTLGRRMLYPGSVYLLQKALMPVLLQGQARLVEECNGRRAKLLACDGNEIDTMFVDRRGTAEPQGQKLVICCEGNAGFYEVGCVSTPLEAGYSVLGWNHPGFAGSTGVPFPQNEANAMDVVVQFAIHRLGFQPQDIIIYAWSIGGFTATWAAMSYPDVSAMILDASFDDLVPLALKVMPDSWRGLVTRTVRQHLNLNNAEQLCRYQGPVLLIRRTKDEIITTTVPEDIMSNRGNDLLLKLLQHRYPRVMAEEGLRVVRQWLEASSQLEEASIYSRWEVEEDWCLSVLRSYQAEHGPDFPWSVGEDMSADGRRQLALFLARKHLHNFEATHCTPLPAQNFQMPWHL
UniProt P11310: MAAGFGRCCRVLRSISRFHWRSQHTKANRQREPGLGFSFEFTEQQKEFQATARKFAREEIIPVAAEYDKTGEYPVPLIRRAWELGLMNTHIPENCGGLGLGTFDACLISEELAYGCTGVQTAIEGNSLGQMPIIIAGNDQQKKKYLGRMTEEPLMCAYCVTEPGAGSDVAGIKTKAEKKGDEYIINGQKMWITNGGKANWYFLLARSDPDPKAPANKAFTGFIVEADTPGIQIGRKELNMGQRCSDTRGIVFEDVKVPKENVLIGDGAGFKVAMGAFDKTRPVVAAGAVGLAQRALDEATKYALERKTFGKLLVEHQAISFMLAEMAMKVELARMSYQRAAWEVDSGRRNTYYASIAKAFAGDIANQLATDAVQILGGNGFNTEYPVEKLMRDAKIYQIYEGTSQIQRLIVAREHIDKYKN
UniProt P49588, whole entry, looked up: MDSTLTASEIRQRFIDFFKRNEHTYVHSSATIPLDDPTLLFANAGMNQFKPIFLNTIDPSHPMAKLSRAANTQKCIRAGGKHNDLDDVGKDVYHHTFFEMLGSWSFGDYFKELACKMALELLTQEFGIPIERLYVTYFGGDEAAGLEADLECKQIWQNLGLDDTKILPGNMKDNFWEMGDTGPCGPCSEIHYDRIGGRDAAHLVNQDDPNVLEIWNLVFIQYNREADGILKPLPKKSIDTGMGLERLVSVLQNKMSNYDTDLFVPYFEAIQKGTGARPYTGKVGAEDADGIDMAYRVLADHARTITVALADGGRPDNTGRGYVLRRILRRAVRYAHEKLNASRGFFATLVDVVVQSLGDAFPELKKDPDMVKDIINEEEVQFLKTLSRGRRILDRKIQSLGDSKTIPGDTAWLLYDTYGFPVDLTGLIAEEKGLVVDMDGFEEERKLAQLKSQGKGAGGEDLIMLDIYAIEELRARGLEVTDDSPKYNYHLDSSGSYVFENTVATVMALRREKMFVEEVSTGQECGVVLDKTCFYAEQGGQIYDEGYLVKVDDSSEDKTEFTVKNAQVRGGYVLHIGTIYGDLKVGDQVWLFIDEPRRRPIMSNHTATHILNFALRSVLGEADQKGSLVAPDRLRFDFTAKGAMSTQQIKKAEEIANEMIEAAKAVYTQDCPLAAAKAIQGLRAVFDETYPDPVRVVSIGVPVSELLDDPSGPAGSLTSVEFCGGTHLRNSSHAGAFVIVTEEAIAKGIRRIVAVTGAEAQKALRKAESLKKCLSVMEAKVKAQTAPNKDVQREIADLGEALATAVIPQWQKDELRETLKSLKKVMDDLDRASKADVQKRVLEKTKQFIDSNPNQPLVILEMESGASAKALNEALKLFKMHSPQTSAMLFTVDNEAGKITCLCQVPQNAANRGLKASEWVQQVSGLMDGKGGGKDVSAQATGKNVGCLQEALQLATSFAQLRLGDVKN
UniProt Q5VST6: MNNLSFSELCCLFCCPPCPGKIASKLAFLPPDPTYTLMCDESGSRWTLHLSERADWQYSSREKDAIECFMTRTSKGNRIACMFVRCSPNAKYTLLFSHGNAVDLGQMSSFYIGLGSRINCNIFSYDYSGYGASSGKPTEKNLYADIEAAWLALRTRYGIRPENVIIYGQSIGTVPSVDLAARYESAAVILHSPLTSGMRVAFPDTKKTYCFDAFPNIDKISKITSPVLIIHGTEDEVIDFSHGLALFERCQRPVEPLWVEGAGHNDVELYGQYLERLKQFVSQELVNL
UniProt P00519, whole entry, looked up: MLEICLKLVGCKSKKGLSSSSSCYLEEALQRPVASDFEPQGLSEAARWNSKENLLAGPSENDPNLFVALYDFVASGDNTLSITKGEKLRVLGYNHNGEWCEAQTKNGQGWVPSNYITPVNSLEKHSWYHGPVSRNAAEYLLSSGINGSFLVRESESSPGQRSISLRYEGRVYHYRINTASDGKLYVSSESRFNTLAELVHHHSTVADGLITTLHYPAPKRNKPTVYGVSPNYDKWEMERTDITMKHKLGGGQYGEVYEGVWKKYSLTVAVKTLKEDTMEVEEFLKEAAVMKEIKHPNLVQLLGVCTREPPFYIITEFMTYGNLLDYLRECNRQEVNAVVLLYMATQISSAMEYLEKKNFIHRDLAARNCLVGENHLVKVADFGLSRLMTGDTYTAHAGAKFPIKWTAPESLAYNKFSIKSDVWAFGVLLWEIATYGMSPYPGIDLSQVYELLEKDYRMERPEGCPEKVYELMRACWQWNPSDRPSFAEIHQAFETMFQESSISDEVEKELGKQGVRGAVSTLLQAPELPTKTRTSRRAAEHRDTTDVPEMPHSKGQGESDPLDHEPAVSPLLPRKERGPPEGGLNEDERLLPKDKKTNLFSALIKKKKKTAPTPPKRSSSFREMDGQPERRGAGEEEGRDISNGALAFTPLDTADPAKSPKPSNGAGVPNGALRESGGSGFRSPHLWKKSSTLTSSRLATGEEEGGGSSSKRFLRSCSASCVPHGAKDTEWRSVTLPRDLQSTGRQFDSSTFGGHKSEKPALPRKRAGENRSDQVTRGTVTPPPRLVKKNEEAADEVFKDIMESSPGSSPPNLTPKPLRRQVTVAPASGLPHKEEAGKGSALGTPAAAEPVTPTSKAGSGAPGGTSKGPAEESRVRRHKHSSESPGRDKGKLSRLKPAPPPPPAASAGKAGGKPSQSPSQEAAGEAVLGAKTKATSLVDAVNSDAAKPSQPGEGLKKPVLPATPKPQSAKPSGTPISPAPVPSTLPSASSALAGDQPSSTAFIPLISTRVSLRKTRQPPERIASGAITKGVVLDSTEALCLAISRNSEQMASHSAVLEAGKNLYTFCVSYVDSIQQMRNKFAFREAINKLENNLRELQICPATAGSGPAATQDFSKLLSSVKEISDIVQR
UniProt Q2M2I8: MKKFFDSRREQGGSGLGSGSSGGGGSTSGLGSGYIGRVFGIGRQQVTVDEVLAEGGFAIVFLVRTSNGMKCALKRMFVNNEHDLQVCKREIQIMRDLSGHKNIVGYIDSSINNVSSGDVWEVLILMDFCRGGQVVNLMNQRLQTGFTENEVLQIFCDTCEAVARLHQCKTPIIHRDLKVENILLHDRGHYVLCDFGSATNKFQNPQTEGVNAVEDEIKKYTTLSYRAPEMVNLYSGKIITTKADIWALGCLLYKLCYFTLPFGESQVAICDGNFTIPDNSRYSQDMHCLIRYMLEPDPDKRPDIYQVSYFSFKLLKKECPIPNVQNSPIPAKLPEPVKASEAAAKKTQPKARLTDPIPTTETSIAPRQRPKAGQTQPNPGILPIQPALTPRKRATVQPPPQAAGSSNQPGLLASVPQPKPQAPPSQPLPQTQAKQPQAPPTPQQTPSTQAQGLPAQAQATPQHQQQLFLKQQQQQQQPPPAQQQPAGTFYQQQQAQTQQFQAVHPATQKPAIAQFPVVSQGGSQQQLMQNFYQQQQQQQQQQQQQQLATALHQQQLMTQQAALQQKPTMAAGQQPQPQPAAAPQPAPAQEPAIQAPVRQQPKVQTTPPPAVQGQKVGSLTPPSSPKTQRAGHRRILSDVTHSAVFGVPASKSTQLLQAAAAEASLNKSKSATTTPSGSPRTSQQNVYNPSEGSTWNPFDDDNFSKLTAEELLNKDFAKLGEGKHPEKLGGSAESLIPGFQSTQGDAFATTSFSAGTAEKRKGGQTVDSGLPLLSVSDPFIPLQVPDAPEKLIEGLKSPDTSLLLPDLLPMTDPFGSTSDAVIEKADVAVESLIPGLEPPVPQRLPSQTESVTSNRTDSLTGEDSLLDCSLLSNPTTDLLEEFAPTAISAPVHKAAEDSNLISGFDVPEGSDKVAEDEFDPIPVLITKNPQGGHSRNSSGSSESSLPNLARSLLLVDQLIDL

This is one part of the list.
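Also: competitive chemoproteomic profiling in live THP-1 cells with an iodoacetamide desthiobiotin (IA-DTB) probe, comparing probe-labelled peptide intensities in compound-treated cells against DMSO-treated controls.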

Compound in this experiment: CC1Cc2ccccc2N1C(=O)C1CCCN(C1)C(=O)CCl (mixture of isomers) [TRIM25 ligand 11 (diastereomer mixture)]
The experiment can be described thus: probe-labelled cysteine peptide fold change vs DMSO (competition) (log2 fold change); higher = less target engagement (more negative = stronger competition). The following applies: 50 µM; THP-1; incubation time: 4 h.
As for “ABCD1_P33897_599_EGGWEAMCDWK (UniProt P33897)”, the “probe-labelled cysteine peptide fold change” value is -0.149. As for “ABCE1_P61221_65_KCPFGALSIVNLPSNLEK (UniProt P61221)”, the figure is 0.0904.

As to “ACAA1_P09110_177_DCLIPMGITSENVAER (UniProt P09110)”, the “probe-labelled cysteine peptide fold change” value is -0.199. As for “ACAA1_P09110_381_VNPLGGAVALGHPLGCTGAR (UniProt P09110)”, the figure is 0.146; as for “ACAA1_P09110_87_DVNLRPEQLGDICVGNVLQPGAGAIMAR (UniProt P09110)”, 0.0319. As for ACAA1_P09110_49_RTAICR (UniProt P09110), the figure is 0.205; as for “ACO2_Q99798_592_CTTDHISAAGPWLK (UniProt Q99798)”, 0.0227. As for “ACADS_P16219_109_GCASTGVIMSVNNSLYLGPILK (UniProt P16219)”, the figure is 0.216; as for “ACBD5_Q5T8D3_83_QATEGPCK (UniProt Q5T8D3)”, 0.113; as for “ACAT1_P24752_413_QGEYGLASICNGGGGASAMLIQKL (UniProt P24752)”, -0.249. In the case of “AAAS_Q9NRG9_321_VWEAQMWTCER (UniProt Q9NRG9)”, the “probe-labelled cysteine peptide fold change” value is -0.183. As for “ABHD16A_O95870_544_HLHNFEATHCTPLPAQNFQMPWHL (UniProt O95870)”, the figure is -0.298; as for “ACAD9_Q9H845_613_RAYICAHPLDR (UniProt Q9H845)”, -0.303; as for “ACADM_P11310_159_MTEEPLMCAYCVTEPGAGSDVAGIK (UniProt P11310)”, -0.324.

For the target “ACO1_P21399_392_DFESCLGAK (UniProt P21399)”, the “probe-labelled cysteine peptide fold change” value was 0.111. As for “ACO2_Q99798_451_DLGGIVLANACGPCIGQWDRK (UniProt Q99798)”, the figure is -0.185; as for “ACAT1_P24752_119_QAVLGAGLPISTPCTTINK (UniProt P24752)”, -0.0258. As for “ACAA1_P09110_218_GCFQAEIVPVTTTVHDDK (UniProt P09110)”, the figure is -0.06; as for “ABCF1_Q8NE71_655_ICIVGPNGVGK (UniProt Q8NE71)”, 0.0955.

In the case of “ACACA_Q13085_1230_MSFSSNLNHYGMTHVASVSDVLLDNSFTPPCQR (UniProt Q13085)”, the “probe-labelled cysteine peptide fold change” value was -0.149. As for “AARS2_Q5JTZ9_749_VVSVGVPVAHALDPASQAALQTSVELCCGTHLLR (UniProt Q5JTZ9)”, the figure is -0.194; as for “AARS_P49588_901+903_ITCLCQVPQNAANR (UniProt P49588)”, 0.201. As for “ABHD17A_Q96GS6_205_YECAAVVLHSPLTSGMR (UniProt Q96GS6)”, the figure is -0.0239; as for “ABHD10_Q9NUJ1_229_EAEHHCLLHSPIPVNCPIR (UniProt Q9NUJ1)”, 0.136; as for “AACS_Q86V21_493_AVWGESGELVCTKPIPCQPTHFWNDENGNK (UniProt Q86V21)”, -0.0616.

In the case of “ACO2_Q99798_448+451_DLGGIVLANACGPCIGQWDRK (UniProt Q99798)”, the “probe-labelled cysteine peptide fold change” value was -0.169. As for “AARSD1_Q9BTE6_266_CGAEDHVEAVK (UniProt Q9BTE6)”, the figure is 0.0313; as for “ABHD17B_Q5VST6_68_DAIECFMTR (UniProt Q5VST6)”, 0.166; as for “ABL1_P00519-2_39_HGGPHCNVFVEHEALQRPVASDFEPQGLSEAAR (UniProt P00519)”, -0.0341. As for “ABCE1_P61221_65_CPFGALSIVNLPSNLEK (UniProt P61221)”, the figure is 0.155; as for “ACAA2_P42765_287_IVGYFVSGCDPSIMGIGPVPAISGALK (UniProt P42765)”, -0.131. As for “ACLY_P53396_519_AVQGMLDFDYVCSR (UniProt P53396)”, the figure is 0.0843; as for “ABHD16A_O95870_248_LVEECNGR (UniProt O95870)”, -0.0546. For the target “AAK1_Q2M2I8_288_YSQDMHCLIR (UniProt Q2M2I8)”, the “probe-labelled cysteine peptide fold change” value was -0.0569. As for “ACACA_Q13085_1176_DNTCVVEFQFMLPTSHPNR (UniProt Q13085)”, the figure is 0.0228; as for “AARS_P49588_671_AVYTQDCPLAAAK (UniProt P49588)”, -0.0594.

Turning to “ABCF2_Q9UG63_586_LIQQVAQEIWVCEK (UniProt Q9UG63)”, the “probe-labelled cysteine peptide fold change” value is 0.141. As for “ACIN1_Q9UKV3_546_GITEECLK (UniProt Q9UKV3)”, the figure is -0.141.
